Assay results: PubChem BioAssay AID1347426 (Functional Genomics Laboratory (NCATS/FGL), 2020)
In all, about 31,000 sequences went through this assay and about 1,400 (4.5%) were called active.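 The calls were made as follows: active = median seed-adjusted z-score above 1 or below -1; inactive = the rest.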 Some of the results follow.

Assay: Novel Modifiers of Survival Motor Neuron (SMN) Protein: Gene Identification via Genome-wide siRNA Screen;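 also: luminescence tracks full-length SMN protein made from the SMN2 reporter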
Settings: HEK293T SMN2-luciferase reporter, siRNA knockdown, 72 h; actives lie on both sides
How it was run: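 Luciferase signal, proportional to full-length SMN made from an SMN2 cDNA reporter in stable HEK293T cells, was read 72 h after siRNA reverse transfection. Values were expressed as MAD scores after non-targeting-control normalization and log10 conversion; seed analysis flagged off-targets.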

With GGAUGCCUUUUGUUCGAAATT against TFIP11 as the sequence, how does the median seed-adjusted z-score read?
The median seed-adjusted z-score was inactive: -0.0562.

Which median seed-adjusted z-score does the source give for GGAAUGUCAGAAUUACCAATT against GTF2I here?
Its median seed-adjusted z-score is inactive: 0.379.

Which median seed-adjusted z-score does the source give for GGUCCUAAAGGAUGAGAAATT against WFIKKN2 here?
The median seed-adjusted z-score was inactive: -0.353.

For GGAACUACAAGAACCACAATT against FEZF2, which median seed-adjusted z-score is on record?
The median seed-adjusted z-score was inactive: 0.203.

For GUGUAACCAUCAAAUCGGATT against NCOA1, which median seed-adjusted z-score is on record?
Its median seed-adjusted z-score is inactive: 0.537.

Which median seed-adjusted z-score does the source give for GGCUGAUAGCUGGAUGAUATT against MID1 here?
The median seed-adjusted z-score was inactive: -0.294.

With GACCAAUUCUAGAUACCAATT against PPP2R1B as the sequence, how does the median seed-adjusted z-score read?
The median seed-adjusted z-score was inactive: -0.295.

Which median seed-adjusted z-score does the source give for CCAUAGUAGUGACUACCAUTT against GRIA3 here?
Its median seed-adjusted z-score is inactive: -0.358.

Which median seed-adjusted z-score does the source give for GGAAGGUUCCAUGAAGCGATT against WNT3A here?
The median seed-adjusted z-score was inactive: -0.66.

For CAAACUCAAGGGUCUCAAATT against ZKSCAN4, which median seed-adjusted z-score is on record?
Its median seed-adjusted z-score is inactive: 0.0558.

With CUGCUGUCUUUAUAUCGGATT against NVL as the sequence, how does the median seed-adjusted z-score read?
Its median seed-adjusted z-score is inactive: 0.701.

Which median seed-adjusted z-score does the source give for CUACAUAAUCUUCUAGAUATT against ARL8B here?
Its median seed-adjusted z-score is inactive: -0.477.

With GGUUCUCUCUGGACCGUCATT against PARD6G as the sequence, how does the median seed-adjusted z-score read?
Its median seed-adjusted z-score is inactive: 0.

Which median seed-adjusted z-score does the source give for CGACUUCACAUACAAUUUATT against ZNF780A here?
Its median seed-adjusted z-score is inactive: 0.298.

Which median seed-adjusted z-score does the source give for CCGAAGAUGAGGGAACGUATT against ROBO3 here?
The median seed-adjusted z-score was inactive: 0.131.

Which median seed-adjusted z-score does the source give for CAGUGAAAGAAGAUCUAAATT against RAB23 here?
The median seed-adjusted z-score was inactive: 0.45.

With GGACGUACAGUGGUGGUAATT against ABCA3 as the sequence, how does the median seed-adjusted z-score read?
The median seed-adjusted z-score was inactive: -0.363.

For GAGCUUGUAUAUGAAGCUATT against PDCD4, which median seed-adjusted z-score is on record?
Its median seed-adjusted z-score is inactive: -0.0842.

Which median seed-adjusted z-score does the source give for GCUGCUCGCUACUUAACUATT against ACO1 here?
Its median seed-adjusted z-score is inactive: -0.197.

For GGAUUUGGAUUGAUAUAUUTT against VRK2, which median seed-adjusted z-score is on record?
The median seed-adjusted z-score was inactive: -0.183.

For GAGUUGAGGUUUAAGACCATT against CACNG4, which median seed-adjusted z-score is on record?
Its median seed-adjusted z-score is inactive: -0.0702.

With CAAUUGAAGGAGUUCCUAUTT against AHSA2 as the sequence, how does the median seed-adjusted z-score read?
Its median seed-adjusted z-score is inactive: -0.881.

With GGACGGUGUUAAGUCGUCATT against AASS as the sequence, how does the median seed-adjusted z-score read?
Its median seed-adjusted z-score is inactive: -0.626.

With GGAUUUGGAGUAGAUCAAUTT against TIAL1 as the sequence, how does the median seed-adjusted z-score read?
Its median seed-adjusted z-score is inactive: -0.985.

Which median seed-adjusted z-score does the source give for GCAGCUCUCAUUUUCCAUATT against CCR5 here?
Its median seed-adjusted z-score is inactive: -0.0281.

For GGCUGAGAAAAUAUCCGAATT against PDE8A, which median seed-adjusted z-score is on record?
The median seed-adjusted z-score was inactive: 0.302.

For GCUGGUUCAUGGUAGAUUUTT against HCN4, which median seed-adjusted z-score is on record?
The median seed-adjusted z-score was inactive: -0.282.

Which median seed-adjusted z-score does the source give for CGCUCACAGUCAUACACGUTT against SLC39A7 here?
Its median seed-adjusted z-score is inactive: 0.0554.

With GGUCAGGCCUUUUUAUACATT against ZNF354A as the sequence, how does the median seed-adjusted z-score read?
Its median seed-adjusted z-score is inactive: 0.401.

For GCACCAAUGUUUAUCUACATT against MYOT, which median seed-adjusted z-score is on record?
Its median seed-adjusted z-score is inactive: 0.091.

Which median seed-adjusted z-score does the source give for GGGAUCUUAUGGAAAGGUUTT against ACTR3B here?
The median seed-adjusted z-score was inactive: -0.301.

Which median seed-adjusted z-score does the source give for UGGAGGAAAUUUUCCGCAATT against CASP1 here?
The median seed-adjusted z-score was inactive: -0.331.

With CAGUCGAACCUUUCCCAGATT against MSRA as the sequence, how does the median seed-adjusted z-score read?
Its median seed-adjusted z-score is inactive: -0.0316.

Which median seed-adjusted z-score does the source give for GGAAAAUCACAGCUGAUUATT against ZNF26 here?
Its median seed-adjusted z-score is inactive: 0.

For GGAUAAAACCCUCCCUGAATT against SNAPC4, which median seed-adjusted z-score is on record?
Its median seed-adjusted z-score is inactive: -0.62.

For GACUGCUGCUUAUCAACAATT against SPR, which median seed-adjusted z-score is on record?
Its median seed-adjusted z-score is inactive: 0.0329.

For GGCCUUGCGGUACUACUAUTT against ELK1, which median seed-adjusted z-score is on record?
The median seed-adjusted z-score was inactive: -0.52.

With CCUUCGUUCCAGUCAAAUUTT against ZNF14 as the sequence, how does the median seed-adjusted z-score read?
Its median seed-adjusted z-score is inactive: -0.0802.

Which median seed-adjusted z-score does the source give for CUAUGAGCCUAACACUGUATT against RALBP1 here?
Its median seed-adjusted z-score is inactive: -0.0514.

For GCGCAUCACUAGCUGCAAATT against ABHD8, which median seed-adjusted z-score is on record?
The median seed-adjusted z-score was inactive: -0.48.

For GCACAAGUGCUACAGCGAUTT against PKP3, which median seed-adjusted z-score is on record?
Its median seed-adjusted z-score is inactive: 0.205.

For CUGCCUAAACAAGAGGUUATT against UBA5, which median seed-adjusted z-score is on record?
The median seed-adjusted z-score was inactive: -0.105.

With GCGACUACACUAUUGGAUUTT against ITGB4 as the sequence, how does the median seed-adjusted z-score read?
Its median seed-adjusted z-score is inactive: -0.226.

For GCAUCAAGACCUCCAAGUATT against ATP8B2, which median seed-adjusted z-score is on record?
The median seed-adjusted z-score was inactive: -0.268.

For GGACCAACCUGUGAACGAUTT against ITGB6, which median seed-adjusted z-score is on record?
The median seed-adjusted z-score was inactive: -0.5.

Which median seed-adjusted z-score does the source give for CCCUUUUUCCGGCACAUGATT against RPS6KB2 here?
The median seed-adjusted z-score was inactive: 0.

For GGAGUAACCUGACCGUGAATT against LCN8, which median seed-adjusted z-score is on record?
The median seed-adjusted z-score was inactive: 0.112.

Which median seed-adjusted z-score does the source give for GCAGCUGCCGGAAAUGUUATT against KRT81 here?
The median seed-adjusted z-score was inactive: -0.0955.

For GGAAUUUAUGGUUCGAAAUTT against MUT, which median seed-adjusted z-score is on record?
The median seed-adjusted z-score was inactive: 0.333.

Which median seed-adjusted z-score does the source give for GCAGCUCAGUUUCGAUGGATT against RAET1G here?
Its median seed-adjusted z-score is inactive: -0.0655.

For GGAGGAUUUGGAUUAAGCATT against SNTG1, which median seed-adjusted z-score is on record?
Its median seed-adjusted z-score is inactive: 0.167.

With CAAACAGCCGCAAAACUCATT against GZMK as the sequence, how does the median seed-adjusted z-score read?
Its median seed-adjusted z-score is inactive: -0.303.

Which median seed-adjusted z-score does the source give for GCCCUACGUUUUCAACGGATT against PSMB1 here?
Its median seed-adjusted z-score is inactive: -0.35.

With CAACAAAUGUGGACGGAGATT against NTRK1 as the sequence, how does the median seed-adjusted z-score read?
Its median seed-adjusted z-score is inactive: -0.223.
